Results as given in paper doi:10.1101/2023.03.06.531310.
No constants are given. Whether binding was seen depends on the method and setting. Binding can be weak; no strength is given. Sequences can lack the tags named with a protein.

Target: T1, GST-p107-R1R2 (human) (UniProt P28749)
T1 sequence: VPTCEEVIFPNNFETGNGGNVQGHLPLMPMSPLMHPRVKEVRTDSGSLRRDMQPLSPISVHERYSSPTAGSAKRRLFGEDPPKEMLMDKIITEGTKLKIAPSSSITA
Assay: pull-down

purified PP2A/B55α holoenzyme (complex) was tested, and the binding was “binds”.
